PubChem BioAssay AID743454 | Peter MacCallum Cancer Centre, 2014

Screen: 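Genes whose loss kills vorinostat-resistant colon cancer cells under vorinostat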 (primary screen)
Cells: human HCT116-VR colon cancer cells, selected for vorinostat resistance
Knock-down reagent: siRNA pool against human genes, 40 nM siRNA pool
Timing: vorinostat for 24 h, read-out about 72 h after transfection
Conditions: vorinostat at 2.5 µM final
Detection: 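Cell viability by CellTiter-Fluor and caspase 3/7 activity by luminescence, each scaled to mock wells per plate, duplicates averaged, then robust z-scored over all plates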
Scale: viability robust z-score: higher = more viable cells than screen typical; caspase robust z-score: higher = more caspase 3/7 activity than screen typical
Active means: 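a knock-down is a hit when classed RV1 or RV2 for lowered viability, or CA1 or CA2 for caspase activation; those lethal without drug were dropped; hits were retested singly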
This is one part, drawn at random, of about 18,000 reagents tested. 450 of all reagents (2.5%) count as active. 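Single biological run; no consistent viability z cut-off exists, so the class columns, not z-scores, define the calls.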

gene,viability hit class,caspase hit class,viability robust z-score,caspase robust z-score,activity call
COG1 (GeneID 9382),no change,no change,-0.88,-0.24,inactive
REXO5 (GeneID 81691),no change,no change,0.12,-0.66,inactive
ABHD11 (GeneID 83451),no change,no change,2.02,1.86,inactive
L3MBTL2 (GeneID 83746),no change,no change,0.25,0.06,inactive
SEC23B (GeneID 10483),no change,no change,-0.63,1,inactive
MAP4K4 (GeneID 9448),no change,no change,0.62,-0.18,inactive
ZFY (GeneID 7544),no change,no change,-0.57,0.16,inactive
EPHA3 (GeneID 2042),no change,no change,-0.44,-1.05,inactive
TIPE1 (GeneID 126282),no change,no change,-0.72,2.87,inactive
PDCD10 (GeneID 11235),no change,no change,1.4,-0.05,inactive
ALMS1 (GeneID 7840),RV2 (reduced viability),no change,-3,-0.13,active
PEMT (GeneID 10400),no change,no change,-0.64,-0.5,inactive
TACC2 (GeneID 10579),no change,no change,-0.44,-0.06,inactive
TAS2R46 (GeneID 259292),no change,no change,-1.6,-0.49,inactive
MAEL (GeneID 84944),no change,no change,-0.58,1.64,inactive
GPRIN3 (GeneID 285513),no change,CA2 (caspase activation),-1,6.25,active
KIR3DL3 (GeneID 115653),no change,no change,-0.12,-0.81,inactive
DSEL (GeneID 92126),no change,no change,0.22,-0.86,inactive
KNSTRN (GeneID 90417),no change,no change,-0.54,-0.05,inactive
PINX1 (GeneID 54984),no change,no change,-1.03,0.2,inactive
PCSK9 (GeneID 255738),no change,no change,-0.7,0.52,inactive
LYPD6B (GeneID 130576),no change,no change,-0.02,-0.42,inactive
BIRC7 (GeneID 79444),no change,no change,-0.62,2.07,inactive
MMP27 (GeneID 64066),no change,no change,0.03,-0.12,inactive
FOXRED1 (GeneID 55572),no change,no change,-0.02,-0.5,inactive
ASB12 (GeneID 142689),no change,no change,-0.45,-0.06,inactive
CADPS (GeneID 8618),no change,no change,0.29,-0.56,inactive
TAGAP (GeneID 117289),no change,no change,-2.28,2.53,inactive
SAMD3 (GeneID 154075),no change,no change,-1.01,-0.65,inactive
KCNJ15 (GeneID 3772),no change,no change,-0.68,0.23,inactive
GSTP1 (GeneID 2950),no change,no change,-0.6,2.32,inactive
C6 (GeneID 729),no change,no change,0.89,-0.72,inactive
SRP14 (GeneID 6727),no change,no change,1.49,1.94,inactive
ENPP1 (GeneID 5167),no change,no change,0.61,-0.49,inactive
WNT16 (GeneID 51384),no change,no change,1.12,-0.21,inactive
USP7 (GeneID 7874),no change,no change,0.9,0.04,inactive
UVSSA (GeneID 57654),no change,no change,-0.01,-0.42,inactive
RASGRP1 (GeneID 10125),no change,no change,0.31,-0.49,inactive
CNTNAP5 (GeneID 129684),no change,no change,0.3,0.57,inactive
ERAS (GeneID 3266),no change,no change,-0.14,-0.52,inactive
CALU (GeneID 813),no change,no change,-0.09,-0.4,inactive
REC8 (GeneID 9985),no change,no change,-0.8,0.89,inactive
IL17B (GeneID 27190),no change,no change,0.57,1.8,inactive
UBXN2B (GeneID 137886),no change,no change,0.86,0.44,inactive
TOR3A (GeneID 64222),no change,no change,0.07,0.37,inactive
ZNF277 (GeneID 11179),no change,no change,-0.22,-0.64,inactive
NFKBID (GeneID 84807),no change,no change,0.55,0.22,inactive
TKT (GeneID 7086),no change,no change,-0.37,1.65,inactive
NTMT1 (GeneID 28989),no change,no change,-0.84,0.65,inactive
SPATA2 (GeneID 9825),no change,no change,-0.73,0.5,inactive
NFKBIL1 (GeneID 4795),no change,no change,-1.66,2.24,inactive
CASD1 (GeneID 64921),no change,no change,0.06,1.68,inactive
TDRD10 (GeneID 126668),no change,no change,0.1,-0.15,inactive
URM1 (GeneID 81605),no change,no change,-0.27,-0.86,inactive
TDRD3 (GeneID 81550),no change,no change,-0.07,1.27,inactive
MRPL18 (GeneID 29074),no change,no change,2.03,-0.9,inactive
OR7G2 (GeneID 390882),no change,no change,-0.32,-0.02,inactive
TRDN (GeneID 10345),no change,no change,-0.68,-0.66,inactive
ADGRF4 (GeneID 221393),no change,no change,-0.28,-1.29,inactive
BLOC1S5 (GeneID 63915),no change,no change,0.84,-0.49,inactive
SMAP2 (GeneID 64744),no change,no change,-0.24,0.1,inactive
NRM (GeneID 11270),no change,no change,0.82,-1.08,inactive
KIF3C (GeneID 3797),no change,no change,0.32,-0.94,inactive
GDAP1L1 (GeneID 78997),no change,no change,-0.18,-0.68,inactive
ZNF649 (GeneID 65251),no change,no change,-0.37,-0.5,inactive
KRTAP22-1 (GeneID 337979),no change,no change,-1.28,-0.53,inactive
JMJD1C (GeneID 221037),no change,no change,0.67,-1.01,inactive
OPRD1 (GeneID 4985),no change,no change,0.06,1.5,inactive
RPL35A (GeneID 6165),no change,no change,-5.31,-1.24,inactive
ZNF383 (GeneID 163087),no change,no change,-0.42,0.44,inactive
BCLAF1 (GeneID 9774),no change,no change,-2.23,-0.16,inactive
LCNL1 (GeneID 401562),no change,no change,-1.56,4.66,inactive
D2HGDH (GeneID 728294),no change,no change,-0.68,-0.37,inactive

Reprinted from the entries so far for reference:
gene,viability hit class,caspase hit class,viability robust z-score,caspase robust z-score,activity call
MRPL18 (GeneID 29074),no change,no change,2.03,-0.9,inactive
OR7G2 (GeneID 390882),no change,no change,-0.32,-0.02,inactive
TRDN (GeneID 10345),no change,no change,-0.68,-0.66,inactive
ADGRF4 (GeneID 221393),no change,no change,-0.28,-1.29,inactive
BLOC1S5 (GeneID 63915),no change,no change,0.84,-0.49,inactive
SMAP2 (GeneID 64744),no change,no change,-0.24,0.1,inactive
NRM (GeneID 11270),no change,no change,0.82,-1.08,inactive
KIF3C (GeneID 3797),no change,no change,0.32,-0.94,inactive
GDAP1L1 (GeneID 78997),no change,no change,-0.18,-0.68,inactive
